Data: paper doi:10.1101/2025.08.01.668025
Results are given in words; binding and its absence hold for the method and conditions named. For part of these data: In cells and extracts the contact can be indirect. Some entries that bind do so weakly or less than the wild type. Tags and fused reporters may be left off the sequences shown.

The chains behind the UniProt entries cited, without tags or fusion partners.
UniProt Q6X5Y6: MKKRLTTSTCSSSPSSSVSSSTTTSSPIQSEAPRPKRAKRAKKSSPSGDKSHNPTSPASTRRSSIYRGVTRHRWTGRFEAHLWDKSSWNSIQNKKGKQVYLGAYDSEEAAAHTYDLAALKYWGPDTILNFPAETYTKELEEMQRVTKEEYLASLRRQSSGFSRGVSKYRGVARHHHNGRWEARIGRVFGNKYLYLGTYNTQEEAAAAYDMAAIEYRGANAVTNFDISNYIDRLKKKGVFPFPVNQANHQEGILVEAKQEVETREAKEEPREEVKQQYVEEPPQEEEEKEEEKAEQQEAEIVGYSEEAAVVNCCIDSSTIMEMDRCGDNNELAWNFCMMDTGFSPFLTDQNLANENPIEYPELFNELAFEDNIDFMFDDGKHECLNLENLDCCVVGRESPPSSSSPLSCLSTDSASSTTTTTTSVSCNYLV

How the values were obtained:
[1] = target: T1, ESD4 (yeast two-hybrid fusion) (Arabidopsis thaliana) (UniProt Q94F30); experiment: two-hybrid
T1 sequence: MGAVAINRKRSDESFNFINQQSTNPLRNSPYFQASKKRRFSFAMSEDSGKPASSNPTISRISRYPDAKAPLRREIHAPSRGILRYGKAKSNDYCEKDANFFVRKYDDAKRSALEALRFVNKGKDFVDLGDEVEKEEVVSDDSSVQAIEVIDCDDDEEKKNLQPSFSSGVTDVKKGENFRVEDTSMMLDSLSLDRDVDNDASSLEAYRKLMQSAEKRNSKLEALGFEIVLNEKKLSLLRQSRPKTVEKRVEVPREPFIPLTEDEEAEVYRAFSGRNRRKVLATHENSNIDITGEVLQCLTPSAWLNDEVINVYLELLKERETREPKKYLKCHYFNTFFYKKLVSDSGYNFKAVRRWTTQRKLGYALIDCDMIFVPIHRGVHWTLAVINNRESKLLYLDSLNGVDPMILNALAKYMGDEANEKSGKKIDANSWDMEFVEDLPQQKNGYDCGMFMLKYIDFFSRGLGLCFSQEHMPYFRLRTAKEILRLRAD

[2] = target: T2, OTS1 (yeast two-hybrid fusion) (Arabidopsis thaliana) (UniProt Q2PS26); experiment: two-hybrid
T2 sequence: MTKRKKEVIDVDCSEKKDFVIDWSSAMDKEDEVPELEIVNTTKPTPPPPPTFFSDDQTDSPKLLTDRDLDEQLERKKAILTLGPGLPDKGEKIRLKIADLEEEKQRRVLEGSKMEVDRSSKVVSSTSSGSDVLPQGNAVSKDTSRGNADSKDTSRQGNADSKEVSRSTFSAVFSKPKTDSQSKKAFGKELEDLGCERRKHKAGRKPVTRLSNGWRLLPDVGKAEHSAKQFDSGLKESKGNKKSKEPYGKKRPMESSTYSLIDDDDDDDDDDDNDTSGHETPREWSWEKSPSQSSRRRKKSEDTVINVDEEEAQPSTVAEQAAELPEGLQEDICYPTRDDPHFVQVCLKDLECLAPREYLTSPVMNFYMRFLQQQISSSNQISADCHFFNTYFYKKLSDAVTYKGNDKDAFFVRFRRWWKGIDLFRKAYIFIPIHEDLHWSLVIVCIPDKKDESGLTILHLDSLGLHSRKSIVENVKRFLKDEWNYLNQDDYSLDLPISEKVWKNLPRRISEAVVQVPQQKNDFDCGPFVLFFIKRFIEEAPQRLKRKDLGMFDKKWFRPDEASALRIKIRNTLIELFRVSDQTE

[3] = target: T3, OTS2 (yeast two-hybrid fusion) (Arabidopsis thaliana) (UniProt Q8RWN0); experiment: two-hybrid
T3 sequence: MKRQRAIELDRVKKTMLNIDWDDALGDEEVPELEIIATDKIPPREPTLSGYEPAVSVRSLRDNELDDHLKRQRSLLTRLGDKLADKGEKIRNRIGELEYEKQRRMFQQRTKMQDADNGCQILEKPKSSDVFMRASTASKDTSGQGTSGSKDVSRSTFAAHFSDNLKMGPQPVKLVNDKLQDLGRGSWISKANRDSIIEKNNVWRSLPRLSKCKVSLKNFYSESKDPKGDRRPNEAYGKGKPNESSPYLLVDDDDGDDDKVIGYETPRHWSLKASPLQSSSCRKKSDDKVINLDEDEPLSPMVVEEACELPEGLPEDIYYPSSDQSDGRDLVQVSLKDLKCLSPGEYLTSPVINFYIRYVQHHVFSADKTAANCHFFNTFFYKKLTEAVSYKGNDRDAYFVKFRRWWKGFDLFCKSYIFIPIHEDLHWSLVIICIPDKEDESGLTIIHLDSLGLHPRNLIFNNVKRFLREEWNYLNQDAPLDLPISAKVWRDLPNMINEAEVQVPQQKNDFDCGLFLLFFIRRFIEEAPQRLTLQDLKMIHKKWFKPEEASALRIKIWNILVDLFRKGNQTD

[4] = target: T4, ULP1a (yeast two-hybrid fusion) (Arabidopsis thaliana) (UniProt Q8GYL3); experiment: two-hybrid
T4 sequence: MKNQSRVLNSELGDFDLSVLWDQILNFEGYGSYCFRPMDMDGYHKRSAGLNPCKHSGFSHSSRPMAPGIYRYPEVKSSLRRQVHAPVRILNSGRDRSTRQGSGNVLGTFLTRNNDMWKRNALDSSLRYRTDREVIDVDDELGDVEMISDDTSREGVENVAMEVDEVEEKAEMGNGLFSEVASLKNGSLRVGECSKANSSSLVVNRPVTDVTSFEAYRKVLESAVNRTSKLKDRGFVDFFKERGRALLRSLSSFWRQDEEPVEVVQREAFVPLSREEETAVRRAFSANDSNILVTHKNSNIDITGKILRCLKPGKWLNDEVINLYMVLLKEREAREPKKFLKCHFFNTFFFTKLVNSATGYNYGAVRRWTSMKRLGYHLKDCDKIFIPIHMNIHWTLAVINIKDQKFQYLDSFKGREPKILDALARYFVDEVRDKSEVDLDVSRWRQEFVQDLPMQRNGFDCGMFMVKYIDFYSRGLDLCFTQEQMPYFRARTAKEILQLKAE

[5] = target: T5, ULP1b (yeast two-hybrid fusion) (Arabidopsis thaliana) (UniProt O65278); experiment: two-hybrid
T5 sequence: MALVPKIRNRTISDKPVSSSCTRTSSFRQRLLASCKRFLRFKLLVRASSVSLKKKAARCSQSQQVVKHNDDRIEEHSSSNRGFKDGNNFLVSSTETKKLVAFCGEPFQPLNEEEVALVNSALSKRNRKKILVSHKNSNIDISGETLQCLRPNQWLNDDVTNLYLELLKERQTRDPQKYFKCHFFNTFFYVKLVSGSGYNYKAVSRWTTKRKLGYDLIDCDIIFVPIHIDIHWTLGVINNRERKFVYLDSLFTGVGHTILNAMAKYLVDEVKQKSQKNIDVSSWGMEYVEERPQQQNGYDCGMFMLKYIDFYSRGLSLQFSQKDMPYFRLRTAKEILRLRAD

WRI1-GFP (Arabidopsis) = WRI1-GFP (Arabidopsis) (UniProt Q6X5Y6); experiment: co-IP

Question: What does the source list for “WRI1-AD (WRINKLED1 fused to GAL4-AD) (from UniProt Q6X5Y6 1-430)”?
Answer: binding [1]: no binding; binding [2]: no binding; binding [3]: no binding; binding [4]: no binding; binding [5]: no binding

B1: BPM2-FLAG (protein, UniProt Q9M8J9 1-406)
chain: MDTIRVSKEVPGSSKSTAQSLTESTSRTETINGSHEFKISGYSLVKGMGIGKYVASDTFMVGGYSWAIYFYPDGKSPEDNSVYVSLFIALASEGADVRALFELTLVDQSGNERHKVHSHFGRTLESGPYTLKYRGSMWGYKRFFKRSLLESSDYLKDNGLLVRCCVGVVKSRTEGPRCYNIPVPVSGLGQQFGKLLESGKGADVTFEVDGETFPAHKLVLAARSAVFRAQLFGPLRSENTNCIIIEDVQAPIFKMLLHFIYWDEMPDMQDLIGTDLKWASTLVAQHLLAAADRYALERLRTICESKLCEGISINTVATTLALAEQHHCFQLKAACLKFIALPENLKAVMETDGFDYLKESCPSLLSELLEYVARLSEHSLTSSGHRKELFADGCDLNGRRVKQRLH
Question: B1 was tested. Which binding (WRI1-GFP (Arabidopsis)) did it give?
Answer: binds
